Test systems include COLO792; COLO800; COLO829; G361; IPC-298; IST-MEL1; LB2518-MEL; LOXIMVI.
What all share (test): cleaved PARP positive nuclei fraction relative to DMSO control; melanoma cells; higher = more apoptosis
What all share (conditions): library dose: low library concentration; 72 h

Experimental findings from the supplement of paper PMC4604168 (melanoma cell lines) are described below.

The list shows a part of the results. Many values rest on one well or one pass, so single values are uncertain.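 Imaging used 1,536-well plates; nuclei positive for cleaved PARP by antibody were divided by total DNA-stained nuclei to yield the apoptosis fraction. Doses for screening kept most cells viable, and cell lines differ markedly in resting and induced cleaved-PARP levels.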

With `CC[C@]1(O)C[C@H]2CN(CCc3c([nH]c4ccccc34)[C@@](C(=O)OC)(c3cc4c(cc3OC)N(C=O)[C@H]3[C@@](O)(C(=O)OC)[C@H](OC(C)=O)[C@]5(CC)C=CCN6CC[C@]43[C@@H]65)C2)C1` [vincristine] + O=C(Oc1ccc([N+](=O)[O-])cc1)N1CCC(C(O)(c2ccc3c(c2)OCO3)c2ccc3c(c2)OCO3)CC1 [JZL184] (first compound 0.0001 µM, partner dose 1 µM), the “cleaved PARP positive nuclei fraction” value with COLO792 was 206%; in the experiment on COLO800, 112%; in the experiment on COLO829 it was 61.5%; with G361, 121%; in the experiment on IPC-298, 93%; in the experiment with IST-MEL1, 81.2%. In addition, the results for the “cleaved PARP positive nuclei fraction” value with LB2518-MEL and in the experiment with LOXIMVI were 32.4% and 40.7%, respectively.
Turning to `CCN(CC)CCNC(=O)c1c(C)[nH]c(/C=C2\C(=O)Nc3ccc(F)cc32)c1C` [sunitinib] + O=C(Oc1ccc([N+](=O)[O-])cc1)N1CCC(C(O)(c2ccc3c(c2)OCO3)c2ccc3c(c2)OCO3)CC1 [JZL184] (first compound 0.4 µM, partner dose 1 µM), the “cleaved PARP positive nuclei fraction” value in the experiment on COLO792 is 101%; with COLO800 it was 163%; with COLO829, 30.6%; in the experiment on G361, 276%; in the experiment on IPC-298 it was 132%; in the experiment with IST-MEL1 it was 181%. The “cleaved PARP positive nuclei fraction” value came out at 136% with LB2518-MEL and 276% in the experiment on LOXIMVI.
`Cn1cc(C2=C(c3cn(C4CCN(Cc5ccccn5)CC4)c4ccccc34)C(=O)NC2=O)c2ccccc21` [Enzastaurin] + O=C(O)C(=O)Nc1sc2c(c1C(=O)O)CCNC2 [TCS401] (first compound 0.8 µM, partner dose 1.66667 µM): the “cleaved PARP positive nuclei fraction” value amounted to 63.3% with COLO792; 122% in the experiment on COLO800; 74.3% in the experiment on COLO829; 107% in the experiment on G361; 148% in the experiment with IPC-298; 192% with IST-MEL1. Besides, the results for the “cleaved PARP positive nuclei fraction” value with LB2518-MEL and with LOXIMVI were 152% and 86%, respectively.
For the compound `O=C(Nc1cc(C(F)(F)F)cc(C(F)(F)F)c1)c1cc(Cl)ccc1O` + O=C(Oc1ccc([N+](=O)[O-])cc1)N1CCC(C(O)(c2ccc3c(c2)OCO3)c2ccc3c(c2)OCO3)CC1 [JZL184] (first compound 0.016 µM, partner dose 1 µM), the “cleaved PARP positive nuclei fraction” value with COLO792 was 75.8%; in the experiment with COLO800, 129%; in the experiment with COLO829, 187%; with G361 it was 95.1%; in the experiment with IPC-298, 116%; in the experiment with IST-MEL1, 29%. Moreover, the figures for the “cleaved PARP positive nuclei fraction” value with LB2518-MEL and in the experiment on LOXIMVI were 35.7% and 165%, respectively.
With `Cn1cnc2c(F)c(Nc3ccc(Br)cc3Cl)c(C(=O)NOCCO)cc21` [selumetinib] + C/C(O)=C(\C#N)C(=O)Nc1cc(Br)ccc1Br [LFM-A13] (first compound 0.015 µM, partner dose 2 µM), the “cleaved PARP positive nuclei fraction” value was determined as 70.7% with COLO792; 41.2% with COLO800; 135% in the experiment on COLO829; 81.3% in the experiment with G361; 223% with IPC-298; 79.1% in the experiment with IST-MEL1. Also, the entries for the “cleaved PARP positive nuclei fraction” value in the experiment on LB2518-MEL and with LOXIMVI were 113% and 95.8%, respectively.
With `Cc1ccc(Nc2nccc(N(C)c3ccc4c(C)n(C)nc4c3)n2)cc1S(N)(=O)=O` [Pazopanib] + O=C(Oc1ccc([N+](=O)[O-])cc1)N1CCC(C(O)(c2ccc3c(c2)OCO3)c2ccc3c(c2)OCO3)CC1 [JZL184] (first compound 0.4 µM, partner dose 1 µM), the “cleaved PARP positive nuclei fraction” value in the experiment on COLO792 was 79.1%; in the experiment with COLO800, 135%; in the experiment with COLO829, 59.5%; in the experiment with G361, 78.4%; in the experiment on IPC-298, 140%; in the experiment on IST-MEL1, 290%. The “cleaved PARP positive nuclei fraction” value in the experiment on LB2518-MEL was 24.1%; with LOXIMVI, 286%.
For `Cn1cc(C2=C(c3cn(C4CCN(Cc5ccccn5)CC4)c4ccccc34)C(=O)NC2=O)c2ccccc21` [Enzastaurin] + Cn1cc(/C=C2\C(=O)Nc3cccnc32)c2ccccc21 [GW441756] (first compound 0.8 µM, partner dose 0.4 µM), the “cleaved PARP positive nuclei fraction” value in the experiment with COLO792 turned out to be 59.4%; in the experiment with COLO800 it was 110%; with COLO829 it was 65.2%; with G361, 121%; in the experiment on IPC-298, 91.5%; in the experiment with IST-MEL1 it was 88.1%. In addition, the “cleaved PARP positive nuclei fraction” value in the experiment with LB2518-MEL is 163%; with LOXIMVI it was 104%.
Take `CCCCCCCCCCCCCCCCCCOP(=O)([O-])OC1CC[N+](C)(C)CC1` [Perifosine] + O=C(Oc1ccc([N+](=O)[O-])cc1)N1CCC(C(O)(c2ccc3c(c2)OCO3)c2ccc3c(c2)OCO3)CC1 [JZL184] (first compound 0.4 µM, partner dose 1 µM): the “cleaved PARP positive nuclei fraction” value in the experiment on COLO792 was determined as 107%; in the experiment on COLO800 it was 100%; with COLO829 it was 65.9%; in the experiment on G361, 113%; in the experiment on IPC-298, 62.7%; with IST-MEL1 it was 150%. Besides, the “cleaved PARP positive nuclei fraction” value came out at 56.8% in the experiment with LB2518-MEL and 130% in the experiment on LOXIMVI.
With `C[C@]12O[C@H](C[C@]1(O)CO)n1c3ccccc3c3c4c(c5c6ccccc6n2c5c31)CNC4=O` [Lestaurtinib] + O=C(Oc1ccc([N+](=O)[O-])cc1)N1CCC(C(O)(c2ccc3c(c2)OCO3)c2ccc3c(c2)OCO3)CC1 [JZL184] (first compound 0.004 µM, partner dose 1 µM), the “cleaved PARP positive nuclei fraction” value in the experiment on COLO792 was 129%; in the experiment on COLO800 it was 51.5%; in the experiment on COLO829, 105%; with G361, 109%; in the experiment on IPC-298, 199%; with IST-MEL1, 107%. For the same compound, the “cleaved PARP positive nuclei fraction” value in the experiment with LB2518-MEL is 164%; in the experiment with LOXIMVI, 109%.
For `N#CC[C@H](C1CCCC1)n1cc(-c2ncnc3[nH]ccc23)cn1` [ruxolitinib] + Cc1cc(SCc2sc(-c3ccc(C(F)(F)F)c(F)c3)nc2C)ccc1OCC(=O)O [GW0742] (first compound 1 µM, partner dose 2 µM), the “cleaved PARP positive nuclei fraction” value in the experiment on COLO792 is 107%; in the experiment with COLO800 it was 40%; in the experiment on COLO829, 43.1%; in the experiment with G361, 89%; with IPC-298, 73.4%; in the experiment with IST-MEL1 it was 91.5%. Further, the “cleaved PARP positive nuclei fraction” value in the experiment with LB2518-MEL amounted to 63.6%; in the experiment with LOXIMVI, 133%.
In the case of `N.N.[Cl][Pt][Cl]` [cisplatin] + COc1ccc2c(c1)CCC1C2CCC2(C)C(NCCCCCCN3C(=O)C=CC3=O)CCC12 [U73122] (first compound 1.6 µM, partner dose 0.4 µM), the “cleaved PARP positive nuclei fraction” value with COLO792 is 83.6%; in the experiment on COLO800, 41.6%; in the experiment on COLO829, 134%; in the experiment on G361 it was 71.9%; with IPC-298, 72.4%; in the experiment on IST-MEL1, 110%. Also, the “cleaved PARP positive nuclei fraction” value in the experiment with LB2518-MEL turned out to be 34.4%; with LOXIMVI, 210%.
